Data: PubChem BioAssay AID493014 (National Center for Advancing Translational Sciences (NCATS), 2011)
Out of some 340,000 compounds screened, about 170 (0.05%) were called active. The inconclusive results got no clear call from the source; some entries with a clear call stand among them for comparison. Calls follow the shape of the dose curve; as a rule, active = well fitted inhibition curve with a large enough effect in the signal ratio, with a control signal flat (not every such curve was filed as active); inconclusive = small, poorly fitted or top-dose-only effect, or effect the other way, or a change in a side signal; inactive = flat fitted curve, though single readings scatter; the % refers to the signal ratio. Potencies of inconclusive entries are doubtful fits and often do not repeat.

Assay: qHTS Assay to Find Inhibitors of Chronic Active B-Cell Receptor Signaling;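 as to activity change, negative = inhibition: plate controls were basal doxycycline-induced cells for no effect and cells given 10 µM MG132 for full effect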
Conditions: ABC-DLBCL IkBa-CBG/CBR reporter, luminescence ratio (green luciferase fused to IkBa over red control in TMD8 lymphoma cells), 4 h; activity change, negative = inhibition: at 46.1 µM (top of the series)
Method in brief: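 Concentration-response series (up to 46 uM) were applied to TMD8 dual-reporter cells for 4 h at 37C with doxycycline. Green/red ratio, after filter-overlap correction, defined %Activity; red signal alone was normalised to basal cells and zero luminescence.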
Potency is read from the fitted curve at half-maximal effect.

Compound | Potency | activity change, negative = inhibition
CCOC(=O)Cc1csc(NC(=O)COc2ccc(C)cc2)n1 | inconclusive: 3.16 µM [rising, partial curve] | –
CC(C)(C)OC(=O)N1CCC[C@H]1C(=O)Nc1ccc(S(=O)(=O)C(F)F)cc1 | – | inactive
CCCCOC(=O)c1ccc(NC(=O)Nc2ccc(OC)c(OC)c2)cc1 | inconclusive: 0.82 µM [falling, partial curve, poor fit] | –
COc1ccc(/C=N/NC(=O)CSCc2ccc([N+](=O)[O-])cc2)cc1OC | – | inconclusive: -2.61%
Cc1cccc[n+]1CC(=O)Nc1cccc([N+](=O)[O-])c1 | – | inactive
CC1(OC(=O)C2CCCC2)C(=O)C=C2C=C(c3ccsc3)N(CCc3c[nH]c4ccccc34)C=C2C1=O (centres undefined) | – | inactive
COc1ccc(CC(=O)Nc2ccc(-c3cn4ccccc4n3)cc2)cc1OC | – | inconclusive: 25.1%
CCCCN(Cc1ccco1)C(=O)c1cc2c(=O)[nH]c3ccc(C)cc3c2s1 | inconclusive: 3.26 µM [falling, partial curve, poor fit] | –
CC(C)CC(NC(=O)OC(C)(C)C)c1cn([C@@H](CCCCNC(=O)OC(C)(C)C)C(=O)N2CCN(C(=O)OC(C)(C)C)CC2)nn1 (some centres undefined) | – | inactive
CCOc1cc(/C=N/Nc2nn3cnnc3c3ccccc23)ccc1O | inconclusive: 11.2 µM [falling, partial curve] | –
O=C(C1CC1)N(Cc1ccco1)c1nc(-c2ccccc2)cs1 | – | inconclusive: 3.54%
Clc1ccccc1-c1nc2ccccc2[nH]1 | inconclusive: 14.1 µM [falling, partial curve, poor fit] | –
O=C(Cn1c2[n+](c3ccccc31)CC(O)CS2)c1ccccc1 (centres undefined) | – | inactive
COc1ccccc1OCCNC(=O)C(c1ccccc1)c1ccccc1 | – | inconclusive: 2.15%
C/C(=N\Nc1nc(C(=O)O)cs1)c1ccccc1 | – | inconclusive: -13.3%
COc1cn(CC(=O)Nc2ccc(C)cc2)c(CN2CCCCC2)cc1=O | – | inactive
CC1CCCN(C(=O)COC(=O)c2cc([N+](=O)[O-])ccc2N2CCOCC2)C1 (centres undefined) | – | inconclusive: -13%
Cc1cc(Cl)ccc1OCC(=O)NCc1ccncc1 | – | inconclusive: 1.34%
Cc1ccc(C2OCC3(CO)COC(c4ccc(C)cc4)N23)cc1 (centres undefined) | inconclusive: 20.6 µM [falling, single point] | –
O=C1CCCc2[nH]c(-c3ccccc3)nc21 | – | inconclusive: -5.29%

Of the compounds above, ten have a carbonyl joined to an NH by a bond outside any ring.
Compound | Potency | activity change, negative = inhibition
CCOC(=O)Cc1csc(NC(=O)COc2ccc(C)cc2)n1 | inconclusive: 3.16 µM [rising, partial curve] | –
CC(C)(C)OC(=O)N1CCC[C@H]1C(=O)Nc1ccc(S(=O)(=O)C(F)F)cc1 | – | inactive
CCCCOC(=O)c1ccc(NC(=O)Nc2ccc(OC)c(OC)c2)cc1 | inconclusive: 0.82 µM [falling, partial curve, poor fit] | –
COc1ccc(/C=N/NC(=O)CSCc2ccc([N+](=O)[O-])cc2)cc1OC | – | inconclusive: -2.61%
Cc1cccc[n+]1CC(=O)Nc1cccc([N+](=O)[O-])c1 | – | inactive
COc1ccc(CC(=O)Nc2ccc(-c3cn4ccccc4n3)cc2)cc1OC | – | inconclusive: 25.1%
CC(C)CC(NC(=O)OC(C)(C)C)c1cn([C@@H](CCCCNC(=O)OC(C)(C)C)C(=O)N2CCN(C(=O)OC(C)(C)C)CC2)nn1 (some centres undefined) | – | inactive
COc1ccccc1OCCNC(=O)C(c1ccccc1)c1ccccc1 | – | inconclusive: 2.15%
COc1cn(CC(=O)Nc2ccc(C)cc2)c(CN2CCCCC2)cc1=O | – | inactive
Cc1cc(Cl)ccc1OCC(=O)NCc1ccncc1 | – | inconclusive: 1.34%

Next results follow.

Compound | Potency | activity change, negative = inhibition
CCOc1ccc(C(=O)NCC(=O)OCC(=O)Nc2ccccc2OC)cc1 | inconclusive: 8.2 µM [falling, partial curve, poor fit] | –
Cc1ccc(C(=O)COC(=O)c2cccc(O)c2)s1 | inconclusive: 3.26 µM [falling, partial curve, poor fit] | –
CN1CCN(c2nc3c(c(=O)n(C)c(=O)n3C)n2Cc2cccc3ccccc23)CC1 | inconclusive: 2.59 µM [falling, partial curve, poor fit] | –
CC(C)c1ccc(NC(=O)C2=NNC(=O)CC2)cc1 | – | inconclusive: -0.206%
Fc1ccc(Nc2ncnc3ccccc23)cc1 | – | inconclusive: -20.1%
O=C(/C=C/c1cn(-c2ccccc2)nc1-c1cccnc1)N1CCCC1 | inconclusive: 15.8 µM [falling, partial curve, poor fit] | –
COc1ccc(-c2coc3cc4oc(=O)c5ccccc5c4cc23)cc1F | inconclusive: 9.2 µM [falling, partial curve, poor fit] | –
C=CCSc1nnc(NC(=O)CCN2C(=O)C3CC=CCC3C2=O)s1 (centres undefined) | – | inconclusive: -0.349%
COc1cc(/C=N/Nc2nc3ccccc3s2)cc([N+](=O)[O-])c1O | – | inconclusive: 5.55%
CCSc1nnc(-c2ccccc2N=Cc2c(C)[nH]n(-c3ccccc3)c2=O)c(=O)[nH]1 | – | inconclusive: 10.6%
Cc1ccc(C)c(NC(=O)c2ccc(N(C)S(C)(=O)=O)cc2)c1 | inconclusive: 13 µM [falling, partial curve, poor fit] | –
Cc1cccc(NC(=O)c2onc3c2CCCC3)c1C | inconclusive: 20 µM [falling, partial curve, poor fit] | –
C/C(=N\NC(=O)c1ccc(Cl)cc1)c1ccc(Br)s1 | – | inactive
Oc1ccc(/C=N/Nc2ccc(C(F)(F)F)cn2)cc1O | inconclusive: 17.8 µM [falling, single point] | –
CCOc1cc(C(=O)O/N=C(\N)c2ccc([N+](=O)[O-])cc2)cc(OCC)c1OCC | – | inconclusive: 14.7%
COc1ccc(N(C(=O)c2snc(C(N)=O)c2N)C(C(=O)NC2CCCC2)c2cc(OC)ccc2OC)c(OC)c1 (centres undefined) | – | inactive
Brc1ccc(C2Nc3cccc4cccc(c34)N2)o1 | – | inactive
CC(=O)Oc1ccc2c(=O)oc(-c3ccccc3)nc2c1 | – | inconclusive: 425%
Cc1ccc(C2C(C#N)=C(N)SC(N)=C2C#N)c(C)c1 | – | inconclusive: -13.2%
